Data reported in PubChem BioAssay AID248 (DTP/NCI, 2004).
The list does not hold the whole screen: it is rich in T/C values a quarter to a half above the control, in often repeated tests (any T/C) and in doses without a T/C. Further doses and runs are listed elsewhere. T/C: endpoint of the treated group in % of that of the vehicle group. Some doses have a count of surviving animals in place of a T/C: the source files T/C as zero there, which appears to mark a toxic dose or a test without result, not a measured value. Some doses without a T/C left all or most animals alive at the check, yet need not have been tolerated: survival well below the control is almost never listed, so the zero probably covers shortened survival too. Survivors were counted at the toxicity check, usually on the fifth day, unless a day is given; later deaths do not show. Schedule codes are those of the source, taken here to give the interval after Q, in days (D) or hours (H), and the number of doses after X. Where survival is the endpoint, the PubChem record calls one and a half times the control and up active, and a quarter to a half above the control has no call in these data; cut-offs in other NCI protocols can differ. Some T/C values carry the count of animals alive at the toxicity check (mostly the fifth day); where none is given, no animal had died by that day. Some entries were tested several times; their values stand side by side, smallest first. Marks such as (2×) count equal records among those shown.

System: L1210 leukemia ip in BDF1 mice, survival T/C
Assay: NCI In Vivo Anticancer Drug Screen. Data for tumor model L1210 Leukemia (intraperitoneal) in B6D2F1 (BDF1) mice
Details: higher T/C = longer survival
[1] = T/C endpoint: mean survival time, dose: 200.0 mg/kg/injection, schedule: Q04DX003 (ip), vehicle: water
[2] = T/C endpoint: mean survival time, dose: 80.0 mg/kg/injection, schedule: Q01DX001 (ip), vehicle: saline
[3] = T/C endpoint: mean survival time, dose: 200.0 mg/kg/injection, schedule: Q01DX001 (ip), vehicle: saline
[4] = T/C endpoint: mean survival time, dose: 400.0 mg/kg/injection, schedule: Q04DX003 (ip), vehicle: saline with Tween-80
[5] = T/C endpoint: mean survival time, dose: 200.0 mg/kg/injection, schedule: Q04DX003 (ip), vehicle: saline
[6] = T/C endpoint: median survival time, dose: 128.0 mg/kg/injection, schedule: Q01DX009 (oral), vehicle: saline

With `Cc1ccc(Cl)cc1S` the survivor count (T/C endpoint: mean survival time, dose: 200.0 mg/kg/injection, schedule: Q01DX009 (ip), vehicle: water) was 0 of 6, the survivor count [1] was 1 of 6 and the survivor count (T/C endpoint: mean survival time, dose: 400.0 mg/kg/injection, schedule: Q01DX009 (ip), vehicle: water) was 0 of 6. The survivor count (T/C endpoint: mean survival time, dose: 400.0 mg/kg/injection, schedule: Q04DX003 (ip), vehicle: water) was 0 of 6.

In the case of `O=C(O)COc1ccccc1C(=O)O`, the survivor count [2] is reported as 0 of 4, the survivor count (T/C endpoint: mean survival time, dose: 100.0 mg/kg/injection, schedule: Q01DX001 (ip), vehicle: saline) is reported as 1 of 4 and the survivor count [3] is reported as 0 of 4. For the same compound, the survivor count (T/C endpoint: mean survival time, dose: 400.0 mg/kg/injection, schedule: Q01DX001 (ip), vehicle: saline) was 0 of 4.

`CC1(C)CN(Cc2ccccc2)C(C)(C)CN1N` was tested, and the survivor count (T/C endpoint: mean survival time, dose: 50.0 mg/kg/injection, schedule: Q01DX009 (ip), vehicle: saline with Tween-80) was 3 of 6, the survivor count (T/C endpoint: mean survival time, dose: 100.0 mg/kg/injection, schedule: Q04DX003 (ip), vehicle: saline with Tween-80) was 2 of 6 and the survivor count (T/C endpoint: mean survival time, dose: 200.0 mg/kg/injection, schedule: Q04DX003 (ip), vehicle: saline with Tween-80) was 0 of 6. For the same compound, the survivor count [4] was 0 of 6.

In the case of `CC1CN1C1=C(F)C(=O)C(N2CC2C)=C(F)C1=O` (stereo not given), the survivor count (T/C endpoint: mean survival time, dose: 6.25 mg/kg/injection, schedule: Q04DX003 (ip), vehicle: Klucel (hydroxypropylcellulose) (HPC)) is reported as 1 of 6, the survivor count (T/C endpoint: mean survival time, dose: 7.0 mg/kg/injection, schedule: Q01DX009 (ip), vehicle: Klucel (hydroxypropylcellulose) (HPC)) is reported as 4 of 6 and the survivor count (T/C endpoint: mean survival time, dose: 10.0 mg/kg/injection, schedule: Q01DX009 (ip), vehicle: Klucel (hydroxypropylcellulose) (HPC)) is reported as 2 of 6. The survivor count (T/C endpoint: mean survival time, dose: 12.5 mg/kg/injection, schedule: Q04DX003 (ip), vehicle: Klucel (hydroxypropylcellulose) (HPC)) was 0 of 6, the survivor count (T/C endpoint: mean survival time, dose: 25.0 mg/kg/injection, schedule: Q04DX003 (ip), vehicle: Klucel (hydroxypropylcellulose) (HPC)) was 0 of 6 and the survivor count (T/C endpoint: mean survival time, dose: 50.0 mg/kg/injection, schedule: Q04DX003 (ip), vehicle: Klucel (hydroxypropylcellulose) (HPC)) was 0 of 6. For the same compound, the survivor count (T/C endpoint: mean survival time, dose: 100.0 mg/kg/injection, schedule: Q04DX003 (ip), vehicle: Klucel (hydroxypropylcellulose) (HPC)) was 0 of 6.

`Cc1c2ccccc2cc2cccc[n+]12` was tested, and the T/C (T/C endpoint: mean survival time, dose: 40.0 mg/kg/injection, schedule: Q04DX003 (ip), vehicle: saline) was 129 % of control, the T/C (T/C endpoint: mean survival time, dose: 60.0 mg/kg/injection, schedule: Q04DX003 (ip), vehicle: saline) was 129 % of control [4 of 6 alive] and the survivor count [2] was 1 of 6. For the same compound, the T/C (T/C endpoint: mean survival time, dose: 80.0 mg/kg/injection, schedule: Q04DX003 (ip), vehicle: saline) was 125 % of control, the survivor count (T/C endpoint: mean survival time, dose: 120.0 mg/kg/injection, schedule: Q04DX003 (ip), vehicle: saline) was 1 of 6 and the survivor count (T/C endpoint: mean survival time, dose: 180.0 mg/kg/injection, schedule: Q04DX003 (ip), vehicle: saline) was 1 of 6. The survivor count (T/C endpoint: mean survival time, dose: 270.0 mg/kg/injection, schedule: Q04DX003 (ip), vehicle: saline) was 3 of 6.

With `O=C(O)c1cscc1-c1cccc2ccccc12` the survivor count [4] was 3 of 6.

With `O=S(=O)(O)c1ccc(CCCCCCCCCl)cc1` the survivor count (T/C endpoint: mean survival time, dose: 400.0 mg/kg/injection, schedule: Q04DX002 (ip), vehicle: saline) was 0 of 3.

`C[C@@H](CN1CC(=O)NC(=O)C1)N1CC(=O)NC(=O)C1` was tested, and the T/C (T/C endpoint: mean survival time, dose: 100.0 mg/kg/injection, schedule: Q04DX003 (ip), vehicle: water) was 133 % of control, the T/C [5] was 128 % of control and the T/C [1] was 142 % of control. For the same compound, the T/C (T/C endpoint: mean survival time, dose: 800.0 mg/kg/injection, schedule: Q04DX003 (ip), vehicle: water) was 129 % of control, the T/C (T/C endpoint: mean survival time, dose: 1024.0 mg/kg/injection, schedule: Q04DX003 (oral), vehicle: saline) was 134 % of control and the survivor count (T/C endpoint: mean survival time, dose: 2048.0 mg/kg/injection, schedule: Q04DX003 (oral), vehicle: saline) was 2 of 10. For the same compound, the T/C (T/C endpoint: median survival time, dose: 8.0 mg/kg/injection, schedule: Q01DX009 (ip), vehicle: saline) was 118, 119, 121 (2×), 129 % of control, the T/C (T/C endpoint: median survival time, dose: 8.0 mg/kg/injection, schedule: Q01DX009 (oral), vehicle: saline) was 113, 122, 123, 152 % of control and the T/C (T/C endpoint: median survival time, dose: 16.0 mg/kg/injection, schedule: Q01DX009 (ip), vehicle: saline) was 128, 130, 134, 135, 148 % of control. The T/C (T/C endpoint: median survival time, dose: 16.0 mg/kg/injection, schedule: Q01DX009 (oral), vehicle: saline) was 124, 127, 152, 153 % of control, the T/C (T/C endpoint: median survival time, dose: 32.0 mg/kg/injection, schedule: Q01DX009 (ip), vehicle: saline) was 140, 143, 146, 154, 156 % of control and the T/C (T/C endpoint: median survival time, dose: 32.0 mg/kg/injection, schedule: Q01DX009 (oral), vehicle: saline) was 134, 161, 164, 172 % of control. The T/C (T/C endpoint: median survival time, dose: 32.0 mg/kg/injection, schedule: Q01DX009 (sc), vehicle: saline) was 149 % of control, the T/C (T/C endpoint: median survival time, dose: 64.0 mg/kg/injection, schedule: Q01DX009 (ip), vehicle: saline) was 153, 163 (2×), 169, 172 % of control and the T/C (T/C endpoint: median survival time, dose: 64.0 mg/kg/injection, schedule: Q01DX009 (oral), vehicle: saline) was 91, 109, 131 [9 of 10 alive], 184 % of control. The T/C (T/C endpoint: median survival time, dose: 64.0 mg/kg/injection, schedule: Q03HX016 (ip), vehicle: saline) was 137 % of control, the T/C [6] was 89, 106, 112 % of control and the survivor count [6] was 10 of 10. For the same compound, the T/C (T/C endpoint: median survival time, dose: 128.0 mg/kg/injection, schedule: Q01DX009 (sc), vehicle: saline) was 146 % of control, the T/C (T/C endpoint: median survival time, dose: 128.0 mg/kg/injection, schedule: Q08DX002 (ip), vehicle: saline) was 126 % of control and the T/C (T/C endpoint: median survival time, dose: 256.0 mg/kg/injection, schedule: Q04DX003 (oral), vehicle: saline) was 136, 150, 167, 184 % of control. The T/C (T/C endpoint: median survival time, dose: 256.0 mg/kg/injection, schedule: Q04DX003 (sc), vehicle: saline) was 132 % of control, the T/C (T/C endpoint: median survival time, dose: 512.0 mg/kg/injection, schedule: Q04DX003 (ip), vehicle: saline) was 146 % of control and the T/C (T/C endpoint: median survival time, dose: 512.0 mg/kg/injection, schedule: Q04DX003 (oral), vehicle: saline) was 157, 184, 188, 236 % of control. For the same compound, the T/C (T/C endpoint: median survival time, dose: 512.0 mg/kg/injection, schedule: Q08DX002 (ip), vehicle: saline) was 137 % of control, the T/C (T/C endpoint: median survival time, dose: 1024.0 mg/kg/injection, schedule: Q01DX001 (ip), vehicle: saline) was 130 % of control and the T/C (T/C endpoint: median survival time, dose: 1024.0 mg/kg/injection, schedule: Q04DX003 (oral), vehicle: saline) was 186, 236, 241, 242 % of control. For the same compound, the T/C (T/C endpoint: median survival time, dose: 2048.0 mg/kg/injection, schedule: Q04DX003 (oral), vehicle: saline) was 98, 146, 198, 247 % of control.

For `CCOc1ccc(N=O)c(O)c1`, the survivor count (T/C endpoint: mean survival time, dose: 300.0 mg/kg/injection, schedule: Q01DX001 (ip), vehicle: carboxymethylcellulose (CMC)) was 2 of 6.

In the case of `[Cl][Cd][Cl].c1ccc(N=P(c2ccccc2)(c2ccccc2)c2ccccc2)cc1`, the survivor count (T/C endpoint: mean survival time, dose: 18.75 mg/kg/injection, schedule: Q01DX001 (ip), vehicle: other) is reported as 1 of 6, the survivor count (T/C endpoint: mean survival time, dose: 37.5 mg/kg/injection, schedule: Q01DX001 (ip), vehicle: other) is reported as 2 of 6 and the survivor count (T/C endpoint: mean survival time, dose: 75.0 mg/kg/injection, schedule: Q01DX001 (ip), vehicle: other) is reported as 0 of 6. For the same compound, the survivor count (T/C endpoint: mean survival time, dose: 150.0 mg/kg/injection, schedule: Q01DX001 (ip), vehicle: other) was 0 of 6 and the survivor count (T/C endpoint: mean survival time, dose: 300.0 mg/kg/injection, schedule: Q01DX001 (ip), vehicle: other) was 0 of 6.

With `COC(=O)C(C)CN1CCCC1` (stereo not given) the survivor count (T/C endpoint: mean survival time, dose: 100.0 mg/kg/injection, schedule: Q04DX003 (ip), vehicle: saline) was 3 of 6, the survivor count [5] was 0 of 6 and the survivor count (T/C endpoint: mean survival time, dose: 400.0 mg/kg/injection, schedule: Q04DX003 (ip), vehicle: saline) was 0 of 6.

In the case of `C=C(Cl)CSc1ncnc2nc[nH]c12`, the survivor count (T/C endpoint: mean survival time, dose: 150.0 mg/kg/injection, schedule: Q01DX001 (ip), vehicle: saline) is reported as 2 of 6 and the survivor count (T/C endpoint: mean survival time, dose: 300.0 mg/kg/injection, schedule: Q01DX001 (ip), vehicle: saline) is reported as 1 of 6.

`C1CCC2CC3CCCCC3CC2C1` (stereo not given) was tested, and the survivor count [3] was 1 of 4.

In the case of `O=C(COc1ccc([N+](=O)[O-])cc1Cl)Nc1ccccc1`, the survivor count (T/C endpoint: mean survival time, dose: 200.0 mg/kg/injection, schedule: Q01DX009 (ip), vehicle: acetone) is reported as 6 of 6 and the survivor count (T/C endpoint: mean survival time, dose: 400.0 mg/kg/injection, schedule: Q01DX009 (ip), vehicle: acetone) is reported as 6 of 6.
